Measured values: patent US10159676B2, “Induction of tumor hypoxia for cancer therapy” (Virginia Commonwealth University, priority 2008, dated 2018)
Some results were stated once for a whole list of compounds, not compound by compound.

System: UCI101 tumor xenografts
Assay: Tumor necrosis in H&E sections three days after treatment
Details: Example 5 (FIG. 5); tirapazamine 60 mg/kg, stilbene 5c 50 mg/kg intraperitoneally; three days later

COc1cc(/C=C\c2ccc(OC)c(N)c2)cc(OC)c1 [stilbene 5c, cis-3, 4′, 5-trimethoxy-3′-aminostilbene]
tumor necrosis: 10-20%
